Measurements taken from patent publication US20120244080A1 (GEORGIA STATE UNIVERSITY RESEARCH FOUNDATION, published 2012).
No constants are given. Whether binding was seen depends on the method and setting. Some binding calls cover weakened binding; strength is not graded here. Tags and fused reporters may be left off the sequences shown.

Protein sequences, listed by entry. Tags and fused reporters are not part of them. Residues count along the entry.
UniProt P32301, residues 22-463: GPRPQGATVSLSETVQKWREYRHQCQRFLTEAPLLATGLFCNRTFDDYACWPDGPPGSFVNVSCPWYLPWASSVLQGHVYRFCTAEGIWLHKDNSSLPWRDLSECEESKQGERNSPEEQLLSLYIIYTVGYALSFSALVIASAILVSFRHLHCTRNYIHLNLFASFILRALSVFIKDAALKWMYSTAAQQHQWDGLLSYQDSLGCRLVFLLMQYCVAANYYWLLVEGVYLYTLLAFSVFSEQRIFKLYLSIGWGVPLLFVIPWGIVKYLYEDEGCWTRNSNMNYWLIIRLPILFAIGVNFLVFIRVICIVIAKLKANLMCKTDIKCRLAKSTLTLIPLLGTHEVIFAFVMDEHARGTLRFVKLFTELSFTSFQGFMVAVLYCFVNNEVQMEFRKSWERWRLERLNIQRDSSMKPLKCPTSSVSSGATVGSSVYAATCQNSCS

What was measured:
[1] = biological target: GLP-1 receptor (GLP-1R) on rat insulinoma RINm5F cells (rat (RINm5F rat insulinoma cells)) (UniProt P32301); test: summary statement in Example 23, resting on the cell staining of Example 14
[2] = biological target: GLP-1 receptor (GLP-1R) on rat insulinoma RINm5F cells (rat (RINm5F rat insulinoma cells)) (UniProt P32301); test: immunofluorescence staining of cells incubated with 10 µM Cal.GLP for 30 min at 37 °C, detected with rabbit polyclonal anti-calbindin D9k

- binding [1]: binds
- binding [2]: binds
B1: Fusion Protein Cal.GLP (human Calbindin D9k-GLP-1 fusion protein) (designed binder)
chain: MSTKKSPEELKRIFEKYAAKEGDPDQLSKDELKLLIQAEFPSLLKGPNTLDDLFQELDKNGHAEGTFTSDVSSYLEGQAAKEFIAWLVKGRG
